Results are given in words; binding and its absence hold for the method and conditions named. For some assays here: Binding seen in cells or lysates may run through a third protein. Some results given as binding are weak or reduced against the parent protein; the word gives no strength. Tags and fused reporters may be left off the sequences shown.
Assays:
[1] = target: T1, UBP12-HA (Arabidopsis thaliana) (UniProt Q9FPT1); assay: co-IP; extracts of 7-day-old 35S:BES1-myc/UBQ10:UBP12-HA seedlings treated with 50 uM MG132 with or without 1 uM eBL for 6 h; 50 mM Tris-HCl pH 7.4, 100 mM NaCl, 0.2% Triton X-100, 1 mM DTT; IP with anti-HA or anti-myc and protein A-agarose, blot with anti-myc or anti-HA
T1 sequence: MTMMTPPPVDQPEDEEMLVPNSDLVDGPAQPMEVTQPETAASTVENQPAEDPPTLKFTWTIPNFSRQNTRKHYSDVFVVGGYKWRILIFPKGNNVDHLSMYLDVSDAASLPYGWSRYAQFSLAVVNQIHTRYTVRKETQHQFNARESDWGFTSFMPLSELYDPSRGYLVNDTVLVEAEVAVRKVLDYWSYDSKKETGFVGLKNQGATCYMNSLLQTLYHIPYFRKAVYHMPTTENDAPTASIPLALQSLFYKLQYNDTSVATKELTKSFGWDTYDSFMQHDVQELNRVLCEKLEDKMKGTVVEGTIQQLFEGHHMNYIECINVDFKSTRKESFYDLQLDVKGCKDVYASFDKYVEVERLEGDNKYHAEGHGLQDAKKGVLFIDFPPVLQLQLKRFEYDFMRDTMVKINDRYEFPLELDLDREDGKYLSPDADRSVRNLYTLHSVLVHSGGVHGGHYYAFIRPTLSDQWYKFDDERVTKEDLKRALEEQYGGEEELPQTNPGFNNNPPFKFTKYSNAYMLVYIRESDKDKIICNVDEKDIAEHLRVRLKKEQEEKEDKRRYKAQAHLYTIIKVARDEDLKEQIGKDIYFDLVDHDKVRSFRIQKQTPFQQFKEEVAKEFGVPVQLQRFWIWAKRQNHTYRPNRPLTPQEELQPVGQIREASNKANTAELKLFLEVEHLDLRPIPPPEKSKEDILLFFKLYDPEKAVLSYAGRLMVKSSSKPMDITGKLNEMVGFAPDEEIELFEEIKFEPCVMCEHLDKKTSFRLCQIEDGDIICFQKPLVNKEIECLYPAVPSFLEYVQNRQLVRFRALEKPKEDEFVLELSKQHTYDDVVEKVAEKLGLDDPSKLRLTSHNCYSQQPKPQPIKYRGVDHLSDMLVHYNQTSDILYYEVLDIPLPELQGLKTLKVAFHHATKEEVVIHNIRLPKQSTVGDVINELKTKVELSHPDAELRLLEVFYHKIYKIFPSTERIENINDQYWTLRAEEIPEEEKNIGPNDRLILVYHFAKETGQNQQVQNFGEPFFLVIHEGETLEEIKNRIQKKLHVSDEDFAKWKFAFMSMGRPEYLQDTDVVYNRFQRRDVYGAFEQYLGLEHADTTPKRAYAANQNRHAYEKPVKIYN

GST-UBP12 (full-length) [2] = target: T2, GST-UBP12 (full-length) (Arabidopsis thaliana, UniProt Q9FPT1 1-1116); assay: pull-down; semi-in vivo; resin-bound GST or GST-UBP12 incubated at 4°C for 2 h with total protein extracts of 7-day-old 35S:BES1-myc seedlings treated with or without 1 uM eBL for 6 h; 100 mM Tris-HCl pH 7.5, 300 mM NaCl, 2 mM EDTA, 1% Triton X-100, 10% glycerol; anti-myc blot; only the target purified
T2 construct: UBP12 (ubiquitin-specific protease 12), Arabidopsis thaliana, At5g06600; full length (1-1116 by the limits printed for its N and C derivatives); not shown: GST, N-terminal, kept
T2 sequence (looked up): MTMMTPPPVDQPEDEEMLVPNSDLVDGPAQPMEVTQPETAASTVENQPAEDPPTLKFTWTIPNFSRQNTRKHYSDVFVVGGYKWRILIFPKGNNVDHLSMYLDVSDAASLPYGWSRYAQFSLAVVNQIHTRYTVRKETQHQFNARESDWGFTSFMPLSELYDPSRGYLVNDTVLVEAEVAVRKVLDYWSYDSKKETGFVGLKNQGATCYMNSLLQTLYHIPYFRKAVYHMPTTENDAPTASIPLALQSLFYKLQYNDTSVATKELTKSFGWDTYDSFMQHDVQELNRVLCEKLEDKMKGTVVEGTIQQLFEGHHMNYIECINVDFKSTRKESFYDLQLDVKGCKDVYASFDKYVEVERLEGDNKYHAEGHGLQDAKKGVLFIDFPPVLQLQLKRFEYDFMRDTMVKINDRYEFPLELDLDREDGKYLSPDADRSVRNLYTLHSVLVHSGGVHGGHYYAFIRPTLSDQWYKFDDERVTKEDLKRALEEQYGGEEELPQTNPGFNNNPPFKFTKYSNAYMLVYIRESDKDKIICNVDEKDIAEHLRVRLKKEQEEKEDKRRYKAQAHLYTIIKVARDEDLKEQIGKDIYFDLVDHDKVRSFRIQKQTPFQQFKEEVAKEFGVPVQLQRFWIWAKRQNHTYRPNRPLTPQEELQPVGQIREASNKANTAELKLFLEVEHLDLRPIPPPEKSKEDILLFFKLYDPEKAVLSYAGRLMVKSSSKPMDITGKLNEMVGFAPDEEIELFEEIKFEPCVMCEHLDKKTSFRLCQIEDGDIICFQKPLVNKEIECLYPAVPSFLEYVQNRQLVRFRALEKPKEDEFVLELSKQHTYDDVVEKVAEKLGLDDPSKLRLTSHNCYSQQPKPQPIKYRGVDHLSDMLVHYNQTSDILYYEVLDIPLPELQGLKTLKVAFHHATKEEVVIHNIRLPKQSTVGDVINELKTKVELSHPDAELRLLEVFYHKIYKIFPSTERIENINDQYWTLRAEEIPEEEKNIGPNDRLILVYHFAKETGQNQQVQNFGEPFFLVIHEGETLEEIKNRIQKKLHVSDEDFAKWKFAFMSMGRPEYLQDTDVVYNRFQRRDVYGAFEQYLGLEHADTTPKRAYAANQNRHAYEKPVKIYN

[3] = target: BES1-myc (dephosphorylated BES1-myc) (Arabidopsis thaliana) (UniProt Q9LN63); assay: co-IP; extracts of 7-day-old 35S:BES1-myc/UBQ10:UBP12-HA seedlings treated with 50 uM MG132 with or without 1 uM eBL for 6 h; 50 mM Tris-HCl pH 7.4, 100 mM NaCl, 0.2% Triton X-100, 1 mM DTT; IP with anti-HA or anti-myc and protein A-agarose, blot with anti-myc or anti-HA
GST-UBP12 (full-length) [4] = target: T2, GST-UBP12 (full-length); assay: pull-down; in vitro; GST-tagged proteins bound to glutathione resin as bait, MBP-tagged proteins incubated with them; about 2 ug of each protein; immunoblot with anti-myc or anti-MBP; both purified
GST-UBP13 (full-length) = target: T3, GST-UBP13 (full-length) (Arabidopsis thaliana, UniProt Q84WU2 1-1115); assay: as above
T3 construct: UBP13 (ubiquitin-specific protease 13), Arabidopsis thaliana, At3g11910; full length
T3 sequence (looked up): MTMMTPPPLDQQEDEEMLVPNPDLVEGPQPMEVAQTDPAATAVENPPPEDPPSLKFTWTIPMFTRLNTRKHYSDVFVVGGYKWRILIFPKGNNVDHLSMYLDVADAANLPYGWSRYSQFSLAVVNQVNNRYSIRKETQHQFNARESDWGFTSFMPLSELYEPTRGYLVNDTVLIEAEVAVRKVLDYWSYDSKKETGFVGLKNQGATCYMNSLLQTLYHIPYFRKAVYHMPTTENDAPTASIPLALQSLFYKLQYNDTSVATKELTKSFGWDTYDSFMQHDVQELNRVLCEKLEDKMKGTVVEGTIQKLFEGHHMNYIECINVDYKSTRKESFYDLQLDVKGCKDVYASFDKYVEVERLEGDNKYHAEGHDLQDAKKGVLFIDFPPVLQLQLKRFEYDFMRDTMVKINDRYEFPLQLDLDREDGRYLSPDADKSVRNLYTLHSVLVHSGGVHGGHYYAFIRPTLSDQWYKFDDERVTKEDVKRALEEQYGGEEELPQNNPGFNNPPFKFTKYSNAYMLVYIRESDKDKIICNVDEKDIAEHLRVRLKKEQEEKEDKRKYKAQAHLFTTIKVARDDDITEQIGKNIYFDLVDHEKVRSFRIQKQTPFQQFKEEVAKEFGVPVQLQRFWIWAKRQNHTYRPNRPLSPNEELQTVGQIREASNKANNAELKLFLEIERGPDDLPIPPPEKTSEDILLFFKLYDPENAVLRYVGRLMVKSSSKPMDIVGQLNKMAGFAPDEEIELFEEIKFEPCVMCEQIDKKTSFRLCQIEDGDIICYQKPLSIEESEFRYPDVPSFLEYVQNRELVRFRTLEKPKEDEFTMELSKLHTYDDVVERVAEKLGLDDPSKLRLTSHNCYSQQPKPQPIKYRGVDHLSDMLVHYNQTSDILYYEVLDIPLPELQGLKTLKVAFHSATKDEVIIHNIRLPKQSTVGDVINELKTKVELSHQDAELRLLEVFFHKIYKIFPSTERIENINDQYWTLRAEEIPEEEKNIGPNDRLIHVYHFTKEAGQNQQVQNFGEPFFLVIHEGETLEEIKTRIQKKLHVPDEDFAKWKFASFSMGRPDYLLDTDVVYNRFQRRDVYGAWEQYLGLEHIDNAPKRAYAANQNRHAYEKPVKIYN

In the case of “pBES1-myc (phosphorylated BES1-myc) (from UniProt Q9LN63 1-335)”, the binding [1] is reported as “binds” and the binding (GST-UBP12 (full-length) [2]) is reported as “binds”.

B1: UBP12-HA (enzyme, UniProt Q9FPT1 1-1116)
chain: MTMMTPPPVDQPEDEEMLVPNSDLVDGPAQPMEVTQPETAASTVENQPAEDPPTLKFTWTIPNFSRQNTRKHYSDVFVVGGYKWRILIFPKGNNVDHLSMYLDVSDAASLPYGWSRYAQFSLAVVNQIHTRYTVRKETQHQFNARESDWGFTSFMPLSELYDPSRGYLVNDTVLVEAEVAVRKVLDYWSYDSKKETGFVGLKNQGATCYMNSLLQTLYHIPYFRKAVYHMPTTENDAPTASIPLALQSLFYKLQYNDTSVATKELTKSFGWDTYDSFMQHDVQELNRVLCEKLEDKMKGTVVEGTIQQLFEGHHMNYIECINVDFKSTRKESFYDLQLDVKGCKDVYASFDKYVEVERLEGDNKYHAEGHGLQDAKKGVLFIDFPPVLQLQLKRFEYDFMRDTMVKINDRYEFPLELDLDREDGKYLSPDADRSVRNLYTLHSVLVHSGGVHGGHYYAFIRPTLSDQWYKFDDERVTKEDLKRALEEQYGGEEELPQTNPGFNNNPPFKFTKYSNAYMLVYIRESDKDKIICNVDEKDIAEHLRVRLKKEQEEKEDKRRYKAQAHLYTIIKVARDEDLKEQIGKDIYFDLVDHDKVRSFRIQKQTPFQQFKEEVAKEFGVPVQLQRFWIWAKRQNHTYRPNRPLTPQEELQPVGQIREASNKANTAELKLFLEVEHLDLRPIPPPEKSKEDILLFFKLYDPEKAVLSYAGRLMVKSSSKPMDITGKLNEMVGFAPDEEIELFEEIKFEPCVMCEHLDKKTSFRLCQIEDGDIICFQKPLVNKEIECLYPAVPSFLEYVQNRQLVRFRALEKPKEDEFVLELSKQHTYDDVVEKVAEKLGLDDPSKLRLTSHNCYSQQPKPQPIKYRGVDHLSDMLVHYNQTSDILYYEVLDIPLPELQGLKTLKVAFHHATKEEVVIHNIRLPKQSTVGDVINELKTKVELSHPDAELRLLEVFYHKIYKIFPSTERIENINDQYWTLRAEEIPEEEKNIGPNDRLILVYHFAKETGQNQQVQNFGEPFFLVIHEGETLEEIKNRIQKKLHVSDEDFAKWKFAFMSMGRPEYLQDTDVVYNRFQRRDVYGAFEQYLGLEHADTTPKRAYAANQNRHAYEKPVKIYN
In the case of B1, the binding [3] is reported as “binds”.

B2: BES1 fragment containing amino acids 99–164 (truncated form of MBP-BES1) (domain or fragment, UniProt Q9LN63 99-164)
chain: GSSSRATPYSSHNQSPLSSTFDSPILSYQVSPSSSSFPSPSRVGDPHNISTIFPFLRNGGIPSSLP
B2 was tested, and the binding (GST-UBP12 (full-length) [4]) was “binds” and the binding (GST-UBP13 (full-length)) was “binds”.

Reference: publication PMC9483116, “Deubiquitination of BES1 by UBP12/UBP13 promotes brassinosteroid signaling and plant growth” (Plant Communications, 2022)
